The results in this text go back to PubChem BioAssay AID1347426 (Functional Genomics Laboratory (NCATS/FGL), 2020).

In all, about 31,000 sequences went through this assay and about 1,400 (4.5%) were called active.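 Rule for the calls: active = median seed-adjusted z-score above 1 or below -1; inactive = the rest.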 This is one part of the list.

The assay in a line: Novel Modifiers of Survival Motor Neuron (SMN) Protein: Gene Identification via Genome-wide siRNA Screen.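 Note: luminescence tracks full-length SMN protein made from the SMN2 reporter.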 The note with it: HEK293T SMN2-luciferase reporter, siRNA knockdown, 72 h; actives lie on both sides. In a few lines:
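siRNA screen, 10418 genes ×3 siRNAs; 1 pmol/well, lipid reverse transfection into HEK293T SMN2-luc reporter line. 72 h, 37 °C, 5% CO2; ONE-Glo readout. Data: neg-ctrl normalized, log10, MAD; hit = MAD >1.0 or < -1.0.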
On the technique in general: In a reporter assay the amount or activity of a reporter protein is the signal.
Consider CCGGGUCAUCUAUUCCGAATT against ICAM4, for which the median seed-adjusted z-score is inactive: -0.338.

Regarding GCCUGGUACCUCUUAAGAATT against TIAM2, the median seed-adjusted z-score is inactive: -0.0239.

Turning to AGAACUCGCUCAACAUCAUTT against KCNC1, the median seed-adjusted z-score was inactive: 0.73.

For CAAGAACUACAGAUUCGUATT against PPP1R13B, the median seed-adjusted z-score was inactive: 0.0943.

As for GCCUUACCCAGAAAGGAAATT against ZNF276, the median seed-adjusted z-score is inactive: 0.318.

Take AGCCCAAGCAGAUAUGUAATT against NOTCH4: the median seed-adjusted z-score is inactive: -0.384.

On to GGCUUUACUUCAGGAUAUATT against GBP2, for which the median seed-adjusted z-score is inactive: -0.263.

As to GAAAUACCCUCACAUGUUATT against LSM2, the median seed-adjusted z-score was active: -1.48.

Consider GGACAAUAGAAUACCUAGATT against HADHA, for which the median seed-adjusted z-score was inactive: 0.47.

For the sequence UGAAGCUGGUUGUCCGUUATT against LIN7B, the median seed-adjusted z-score is inactive: 0.236.

As for CAGUCUUGAUUCCACUGAATT against PCDHA3, the median seed-adjusted z-score was inactive: 0.311.

Take GCAACGUACGCACUUCACATT against PITX1: the median seed-adjusted z-score was inactive: 0.

Take CUCUAUACUUUUAACGAUUTT against TRIM60: the median seed-adjusted z-score is inactive: -0.201.

Turning to GAUUUGCACUAUCGGAAUATT against TRPM7, the median seed-adjusted z-score is inactive: -0.575.

In the case of UCCUGGAAAUCGUGACUAUTT against KCNQ2, the median seed-adjusted z-score is inactive: 0.0368.

Take GAACGAUGUUGGACUCAUATT against INSR: the median seed-adjusted z-score was inactive: 0.172.

In the case of GGUUUUUCAAGUACGAAAATT against RPS6KB1, the median seed-adjusted z-score is active: 1.4.

With GGAACUGACAGAGUCCGUATT against BACH1, the median seed-adjusted z-score was inactive: -0.404.

As to GAACAUCAAUUGUUCCAUATT against HMGCL, the median seed-adjusted z-score was inactive: 0.046.

As for CGAAGAAGCGUAUGCGGAATT against PNKP, the median seed-adjusted z-score is inactive: -0.0563.

As to CAUCGAAUCCUUACCCGAATT against AASDHPPT, the median seed-adjusted z-score was inactive: 0.64.

Turning to AGAGAUCACCGAUUACAGATT against ISG20, the median seed-adjusted z-score is inactive: 0.0209.

As to GCAAUUUCCUAGACAAUGATT against SPOCK1, the median seed-adjusted z-score was inactive: -0.596.

Turning to GCAGGACAGCUAUCGCUUUTT against TBC1D1, the median seed-adjusted z-score is inactive: -0.359.

As for CCCAGGCUCGAAUCCCAUATT against PLD3, the median seed-adjusted z-score was inactive: 0.066.

GCAUGUGAUUGACAUCAAUTT against PCDHGA3: the median seed-adjusted z-score was inactive: 0.27.

As to UCACCGUGCUGAUUCGGAATT against CCKAR, the median seed-adjusted z-score is inactive: 0.376.

On to CAGCGAAAUUUCUUCAGUUTT against PPP4R2, for which the median seed-adjusted z-score is inactive: 0.211.

On to GGAAGACUAUAAAUCUAUATT against TTC1, for which the median seed-adjusted z-score is inactive: 0.3.

CAUCGAUACUGGUGAAGGATT against MYBPC3: the median seed-adjusted z-score is inactive: 0.304.
